Assay results from article PMC8752572.
No constants are given. Whether binding was seen depends on the method and setting. Binding seen in cells or lysates may run through a third protein. Sequences can lack the tags named with a protein.

Molecular target: T1, myc-tagged SETD3 (SET domain-containing 3) (UniProt Q86TU7)
T1 sequence: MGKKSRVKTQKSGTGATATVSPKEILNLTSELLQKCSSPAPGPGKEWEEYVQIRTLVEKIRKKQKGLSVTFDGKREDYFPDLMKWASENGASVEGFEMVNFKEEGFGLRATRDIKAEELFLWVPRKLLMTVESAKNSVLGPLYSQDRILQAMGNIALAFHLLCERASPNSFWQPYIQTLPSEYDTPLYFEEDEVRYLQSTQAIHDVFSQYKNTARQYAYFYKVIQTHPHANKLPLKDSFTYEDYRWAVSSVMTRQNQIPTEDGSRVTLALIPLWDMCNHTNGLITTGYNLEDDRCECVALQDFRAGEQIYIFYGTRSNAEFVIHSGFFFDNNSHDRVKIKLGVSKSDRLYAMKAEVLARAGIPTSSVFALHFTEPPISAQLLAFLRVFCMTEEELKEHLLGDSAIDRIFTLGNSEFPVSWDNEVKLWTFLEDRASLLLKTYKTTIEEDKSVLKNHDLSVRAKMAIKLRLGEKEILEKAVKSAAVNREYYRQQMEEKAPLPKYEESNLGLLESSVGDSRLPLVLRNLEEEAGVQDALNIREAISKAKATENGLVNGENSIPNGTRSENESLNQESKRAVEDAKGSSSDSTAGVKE
Assay: co-IP; truncated mutants of USP27 tested with SETD3 (Fig. 1I) and of SETD3 with USP27 (Fig. 1J), 'as indicated'; method, cells and tags not named for these panels

binding: no binding
Substance: USP27 truncated mutant with the C-terminal UCH domain deleted (domain or fragment)
